From ChEMBL document CHEMBL4316593 (Eur J Med Chem, 2019)
This continues a long series; more values of the same kind are listed elsewhere.

Experiments:
Assay type in all cases: cell-based
Settings in all cases: U-87MG ATCC
[1] = Inhibition of RTK/PI3K/AKT/mTOR signaling in human U87 cells assessed as up regulation of TBC1 domain family member 8B gene expression at cytotoxic IC50 measured after 48 hrs relative to control
[2] = Inhibition of RTK/PI3K/AKT/mTOR signaling in human U87 cells assessed as up regulation of fucosyltransferase 1 (H blood group) gene expression at cytotoxic IC50 measured after 48 hrs relative to control
[3] = Inhibition of RTK/PI3K/AKT/mTOR signaling in human U87 cells assessed as up regulation of butyrophilin subfamily 3 member A2 gene expression at cytotoxic IC50 measured after 48 hrs relative to control
[4] = Inhibition of RTK/PI3K/AKT/mTOR signaling in human U87 cells assessed as up regulation of SERPINA5 gene expression at cytotoxic IC50 measured after 48 hrs relative to control
[5] = Inhibition of RTK/PI3K/AKT/mTOR signaling in human U87 cells assessed as down regulation of PJA1 gene expression at cytotoxic IC50 measured after 48 hrs relative to control
[6] = Inhibition of RTK/PI3K/AKT/mTOR signaling in human U87 cells assessed as up regulation of EPCAM gene expression at cytotoxic IC50 measured after 48 hrs relative to control
[7] = Inhibition of RTK/PI3K/AKT/mTOR signaling in human U87 cells assessed as up regulation of calcium homeostasis modulator 2 gene expression at cytotoxic IC50 measured after 48 hrs relative to control
[8] = Inhibition of RTK/PI3K/AKT/mTOR signaling in human U87 cells assessed as up regulation of TMEM57 gene expression at cytotoxic IC50 measured after 48 hrs relative to control
[9] = Inhibition of RTK/PI3K/AKT/mTOR signaling in human U87 cells assessed as down regulation of FAM53B gene expression at cytotoxic IC50 measured after 48 hrs relative to control
[10] = Inhibition of RTK/PI3K/AKT/mTOR signaling in human U87 cells assessed as down regulation of MATR3 gene expression at cytotoxic IC50 measured after 48 hrs relative to control
[11] = Inhibition of RTK/PI3K/AKT/mTOR signaling in human U87 cells assessed as up regulation of chromobox 8 gene expression at cytotoxic IC50 measured after 48 hrs relative to control
[12] = Inhibition of RTK/PI3K/AKT/mTOR signaling in human U87 cells assessed as up regulation of NORAD gene expression at cytotoxic IC50 measured after 48 hrs relative to control
[13] = Inhibition of RTK/PI3K/AKT/mTOR signaling in human U87 cells assessed as up regulation of leucine rich repeat containing 3 gene expression at cytotoxic IC50 measured after 48 hrs relative to control
[14] = Inhibition of RTK/PI3K/AKT/mTOR signaling in human U87 cells assessed as up regulation of BAI1 associated protein 2 like 1 gene expression at cytotoxic IC50 measured after 48 hrs relative to control
[15] = Inhibition of RTK/PI3K/AKT/mTOR signaling in human U87 cells assessed as up regulation of SEC61A1 gene expression at cytotoxic IC50 measured after 48 hrs relative to control
[16] = Inhibition of RTK/PI3K/AKT/mTOR signaling in human U87 cells assessed as down regulation of SCARB2 gene expression at cytotoxic IC50 measured after 48 hrs relative to control
[17] = Inhibition of RTK/PI3K/AKT/mTOR signaling in human U87 cells assessed as down regulation of NEK9 gene expression at cytotoxic IC50 measured after 48 hrs relative to control
[18] = Inhibition of RTK/PI3K/AKT/mTOR signaling in human U87 cells assessed as down regulation of ATP5G3 gene expression at cytotoxic IC50 measured after 48 hrs relative to control
[19] = Inhibition of RTK/PI3K/AKT/mTOR signaling in human U87 cells assessed as up regulation of GJB3 gene expression at cytotoxic IC50 measured after 48 hrs relative to control
[20] = Inhibition of RTK/PI3K/AKT/mTOR signaling in human U87 cells assessed as up regulation of CBX3 gene expression at cytotoxic IC50 measured after 48 hrs relative to control
[21] = Inhibition of RTK/PI3K/AKT/mTOR signaling in human U87 cells assessed as down regulation of NDFIP1 gene expression at cytotoxic IC50 measured after 48 hrs relative to control
[22] = Inhibition of RTK/PI3K/AKT/mTOR signaling in human U87 cells assessed as up regulation of chromosome 19 open reading frame 48 gene expression at cytotoxic IC50 measured after 48 hrs relative to control
[23] = Inhibition of RTK/PI3K/AKT/mTOR signaling in human U87 cells assessed as down regulation of PSME4 gene expression at cytotoxic IC50 measured after 48 hrs relative to control
[24] = Inhibition of RTK/PI3K/AKT/mTOR signaling in human U87 cells assessed as down regulation of DHX38 gene expression at cytotoxic IC50 measured after 48 hrs relative to control
[25] = Inhibition of RTK/PI3K/AKT/mTOR signaling in human U87 cells assessed as up regulation of signal transducer and activator of transcription 6 gene expression at cytotoxic IC50 measured after 48 hrs relative to control
[26] = Inhibition of RTK/PI3K/AKT/mTOR signaling in human U87 cells assessed as up regulation of AT-hook transcription factor gene expression at cytotoxic IC50 measured after 48 hrs relative to control
[27] = Inhibition of RTK/PI3K/AKT/mTOR signaling in human U87 cells assessed as down regulation of ZZEF1 gene expression at cytotoxic IC50 measured after 48 hrs relative to control
[28] = Inhibition of RTK/PI3K/AKT/mTOR signaling in human U87 cells assessed as up regulation of RGL2 gene expression at cytotoxic IC50 measured after 48 hrs relative to control
[29] = Inhibition of RTK/PI3K/AKT/mTOR signaling in human U87 cells assessed as down regulation of CRISPLD2 gene expression at cytotoxic IC50 measured after 48 hrs relative to control
[30] = Inhibition of RTK/PI3K/AKT/mTOR signaling in human U87 cells assessed as up regulation of family with sequence similarity 60 member A gene expression at cytotoxic IC50 measured after 48 hrs relative to control
[31] = Inhibition of RTK/PI3K/AKT/mTOR signaling in human U87 cells assessed as up regulation of SYNPO gene expression at cytotoxic IC50 measured after 48 hrs relative to control
[32] = Inhibition of RTK/PI3K/AKT/mTOR signaling in human U87 cells assessed as down regulation of WDR47 gene expression at cytotoxic IC50 measured after 48 hrs relative to control

CC(=O)C(=NNc1ccccc1C#N)C(C)=O
log2FC [1]: 0.788
log2FC [2]: 1.03
log2FC [3]: 0.975
log2FC [4]: 2.35
log2FC [5]: -0.925
log2FC [6]: 0.454
log2FC [7]: 1.51
log2FC [8]: 0.638
log2FC [9]: -1
log2FC [10]: -2.04
log2FC [11]: 1.04
log2FC [12]: 0.623
log2FC [13]: 1.31
log2FC [14]: 0.739
log2FC [15]: 0.53
log2FC [16]: -0.408
log2FC [17]: -0.654
log2FC [18]: -0.732
log2FC [19]: 2.21
log2FC [20]: 0.412
log2FC [21]: -0.533
log2FC [22]: 0.704
log2FC [23]: -0.544
log2FC [24]: -0.71
log2FC [25]: 1.08
log2FC [26]: 0.964
log2FC [27]: -0.579
log2FC [28]: 0.632
log2FC [29]: -1.95
log2FC [30]: 0.908
log2FC [31]: 1.74
log2FC [32]: -1.47
